Values of other authors as cited in patent publication US7105229B2, “Coated particles, methods of making and using” (priority 1997, dated 2006).
Some of these results come from one statement about several compounds together.

Conditions: generally; cited from earlier work

II [Iodine]
water solubility: less than 5%
